From publication PMC4728063 come the findings set out here.

Test [1] concerns the target T1, RS1 (retinoschisin), human, recombinant, secreted from Sf21 insect cells (human), O15537.
T1 chain: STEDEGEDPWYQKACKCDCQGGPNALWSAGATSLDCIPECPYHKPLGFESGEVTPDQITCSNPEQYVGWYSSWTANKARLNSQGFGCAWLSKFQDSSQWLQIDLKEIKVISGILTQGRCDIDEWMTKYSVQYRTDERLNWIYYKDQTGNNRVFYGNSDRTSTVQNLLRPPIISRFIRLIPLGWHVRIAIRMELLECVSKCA
Description: SEC; nondenatured RS1 on a calibrated Superdex 200 10/300 column, 20mM Tris-HCl pH 7.5, 100mM NaCl, 0.5 ml/min; both purified. The note with it: remark: other sources report otherwise. Background: Size exclusion chromatography separates by hydrodynamic size, large species first.

The target of test [2] is T1, RS1 (retinoschisin), human, …. The experiment in a line: SDS gel electrophoresis, reducing versus non-reducing; purified RS1 on SDS gels under disulphide reducing (about 25 kDa) and non-reducing (about 200 kDa) conditions; both purified. The settings on record: remark: other sources report otherwise.

Results are given in words; binding and its absence hold for the method and conditions named. Some binding calls cover weakened binding; strength is not graded here. Tags and fused reporters may be left off the sequences shown.

B1: RS1 (retinoschisin), human, recombinant, secreted from Sf21 insect cells, O15537 24-224 (natural protein)
chain: T1 chain
As for B1, the binding result in test [1] and in test [2] was “binds” throughout.
